This note sets out measurements from paper doi:10.64898/2025.12.01.691266.

By UniProt entry, the sequences of proteins in these tests, tags left out. Where a name states a change or a piece, a line headed by the entry shows the natural chain unless it says otherwise.
UniProt Q13485: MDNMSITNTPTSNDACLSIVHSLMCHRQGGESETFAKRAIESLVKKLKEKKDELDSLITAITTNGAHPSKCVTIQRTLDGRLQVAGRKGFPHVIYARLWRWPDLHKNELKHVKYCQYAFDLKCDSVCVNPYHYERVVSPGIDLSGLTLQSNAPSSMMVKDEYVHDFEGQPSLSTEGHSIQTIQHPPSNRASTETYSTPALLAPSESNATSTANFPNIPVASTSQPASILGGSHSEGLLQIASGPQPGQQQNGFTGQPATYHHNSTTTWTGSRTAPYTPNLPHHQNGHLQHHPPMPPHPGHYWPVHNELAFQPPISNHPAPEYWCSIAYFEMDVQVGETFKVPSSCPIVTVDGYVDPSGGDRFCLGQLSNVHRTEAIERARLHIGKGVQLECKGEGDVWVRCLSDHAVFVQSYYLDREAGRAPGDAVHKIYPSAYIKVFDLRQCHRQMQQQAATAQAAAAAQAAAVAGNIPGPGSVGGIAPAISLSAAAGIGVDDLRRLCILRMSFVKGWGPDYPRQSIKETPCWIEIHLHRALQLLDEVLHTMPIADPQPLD
UniProt Q15796: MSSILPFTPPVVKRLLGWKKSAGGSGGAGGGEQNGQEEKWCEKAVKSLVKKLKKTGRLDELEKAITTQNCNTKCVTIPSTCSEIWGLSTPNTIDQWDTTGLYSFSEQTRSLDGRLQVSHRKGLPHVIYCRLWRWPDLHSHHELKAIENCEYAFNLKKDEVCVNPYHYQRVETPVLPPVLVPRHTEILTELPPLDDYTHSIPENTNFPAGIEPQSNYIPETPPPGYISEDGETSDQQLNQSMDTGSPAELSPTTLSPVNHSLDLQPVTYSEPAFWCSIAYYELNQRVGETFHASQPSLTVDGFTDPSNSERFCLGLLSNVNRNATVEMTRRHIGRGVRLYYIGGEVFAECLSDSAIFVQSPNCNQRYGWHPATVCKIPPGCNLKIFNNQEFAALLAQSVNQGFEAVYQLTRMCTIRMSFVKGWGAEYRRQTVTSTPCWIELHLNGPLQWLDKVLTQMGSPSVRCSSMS
UniProt P84022: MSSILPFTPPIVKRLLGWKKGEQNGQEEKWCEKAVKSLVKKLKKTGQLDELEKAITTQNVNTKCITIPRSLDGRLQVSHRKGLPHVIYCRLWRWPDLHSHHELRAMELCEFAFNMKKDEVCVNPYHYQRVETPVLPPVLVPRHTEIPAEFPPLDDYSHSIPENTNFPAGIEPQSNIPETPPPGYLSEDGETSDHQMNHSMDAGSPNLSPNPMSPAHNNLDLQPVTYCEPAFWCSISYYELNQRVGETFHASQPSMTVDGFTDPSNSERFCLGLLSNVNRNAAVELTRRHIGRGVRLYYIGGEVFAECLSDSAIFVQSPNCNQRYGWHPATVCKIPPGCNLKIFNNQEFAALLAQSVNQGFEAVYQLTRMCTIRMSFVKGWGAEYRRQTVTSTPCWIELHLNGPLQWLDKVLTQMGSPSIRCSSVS
UniProt Q13547: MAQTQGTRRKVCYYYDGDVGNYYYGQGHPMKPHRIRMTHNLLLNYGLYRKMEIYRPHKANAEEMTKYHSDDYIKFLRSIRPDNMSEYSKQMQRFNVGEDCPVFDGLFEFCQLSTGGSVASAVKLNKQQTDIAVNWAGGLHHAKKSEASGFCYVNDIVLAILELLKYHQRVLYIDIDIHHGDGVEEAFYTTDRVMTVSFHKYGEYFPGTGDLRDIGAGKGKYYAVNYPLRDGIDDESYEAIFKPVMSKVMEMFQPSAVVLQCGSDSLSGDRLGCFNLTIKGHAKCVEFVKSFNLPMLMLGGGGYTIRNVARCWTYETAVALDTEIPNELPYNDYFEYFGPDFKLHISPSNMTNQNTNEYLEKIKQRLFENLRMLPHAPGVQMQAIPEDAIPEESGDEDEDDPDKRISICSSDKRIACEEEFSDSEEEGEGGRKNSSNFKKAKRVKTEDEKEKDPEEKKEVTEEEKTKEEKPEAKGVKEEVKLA

Test [1] has as its target T1, HA-SFPQ (UniProt P23246).
T1 sequence: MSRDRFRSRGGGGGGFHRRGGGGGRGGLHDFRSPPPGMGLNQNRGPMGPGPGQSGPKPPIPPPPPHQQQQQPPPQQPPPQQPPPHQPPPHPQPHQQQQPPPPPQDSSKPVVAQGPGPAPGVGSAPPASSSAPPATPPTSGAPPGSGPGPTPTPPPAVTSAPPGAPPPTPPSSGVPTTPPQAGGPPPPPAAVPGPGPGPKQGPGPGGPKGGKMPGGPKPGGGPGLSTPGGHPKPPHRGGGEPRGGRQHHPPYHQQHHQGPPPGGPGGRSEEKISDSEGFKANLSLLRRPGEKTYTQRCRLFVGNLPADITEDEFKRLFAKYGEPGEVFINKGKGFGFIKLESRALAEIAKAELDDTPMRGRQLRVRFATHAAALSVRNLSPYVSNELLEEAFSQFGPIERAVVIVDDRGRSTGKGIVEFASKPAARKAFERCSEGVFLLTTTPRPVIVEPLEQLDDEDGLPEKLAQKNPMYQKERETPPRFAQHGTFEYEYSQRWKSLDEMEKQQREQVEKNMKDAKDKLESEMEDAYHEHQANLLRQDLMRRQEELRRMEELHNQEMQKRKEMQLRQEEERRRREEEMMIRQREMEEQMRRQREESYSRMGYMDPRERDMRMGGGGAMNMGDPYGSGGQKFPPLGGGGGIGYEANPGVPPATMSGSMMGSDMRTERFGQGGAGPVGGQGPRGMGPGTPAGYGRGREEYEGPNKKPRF
The test can be described thus: co-IP.

Test [2] has as its target T2, Splicing factor proline- and glutamine-rich (SFPQ) protein (human (endogenous in EA.hy926)) (UniProt P23246).
T2 sequence: T1 sequence
The test can be described thus: co-IP.

No constants are given. Whether binding was seen depends on the method and setting. Binding seen in cells or lysates may run through a third protein. Some results given as binding are weak or reduced against the parent protein; the word gives no strength. For some assays here: Sequences can lack the tags named with a protein.

In the case of Smad4 (from UniProt Q13485 1-552), the binding entry in test [1] and in test [2] was “binds” throughout.

Take “Smad2/3 (from UniProt Q15796;P84022) (complex)”: the binding entry in test [1] and in test [2] was “binds” each time.

On to HDAC1 (from UniProt Q13547 1-482), for which the binding entry in test [2] is listed as “no binding”.
